Assay results taken from patent US11471674B2, “Electroosmotic convection-enhanced delivery system” (University of Pittsburgh—Of the Commonwealth System of …, priority 2012, dated 2022).

Test: Fused silica open tube catheter infusion into hydrogel (tissue surrogate)
Conditions: for penetration distance where the fluorescence intensity was 25% of I0: 1 μA, 40 min, hydrogel −24.7 mV zeta-potential, mean±SEM; for penetration distance where the fluorescence intensity was 25% of I0 / distance where 25% of I0 occurred: N=5; for distance where 25% of I0 occurred: ~50 μm tip, 40 minutes of infusion

With `[Ru+2].c1ccc(-c2ccccn2)nc1.c1ccc(-c2ccccn2)nc1.c1ccc(-c2ccccn2)nc1` [Ru(bpy)3^2+, tris(2,2′-bipyridyl)ruthenium(II)] the “ratio of penetration distance at 25% of I0 by electrokinetic transport to maximum distance by diffusion alone (steady state)” value (0.5 μA current) was 14, the “ratio of penetration distance at 25% of I0 by electrokinetic transport to maximum distance by diffusion alone (steady state)” value (1.5 μA current) was 17 and the “penetration distance where the fluorescence intensity was 25% of I0” value (50 μm diameter catheter tip) was 1,489±27 μm. For the same compound, the “penetration distance where the fluorescence intensity was 25% of I0” value (100 μm diameter catheter tip) was 4,516±96 μm, the “distance where 25% of I0 occurred” value (0.5 μA) was 1,342±67 μm and the “distance where 25% of I0 occurred” value (1.5 μA) was 1,682±36 μm.
